# Test results as given in PMC5665762, “Phase 1 study of veliparib with carboplatin and weekly paclitaxel in Japanese patients with newly diagnosed ovarian cancer” (Cancer Science, 2017).
# System: Japanese patients with newly diagnosed ovarian cancer
# Assay: Phase 1 safety/tolerability: treatment-emergent adverse events, DLT, MTD, RP2D
# Settings: all patients, up to 6 cycles
# Protocol: This was a phase 1, open‐label, multicenter, dose‐escalation study to evaluate the tolerability, safety, PK and preliminary efficacy of oral veliparib in combination with carboplatin and weekly paclitaxel in Japanese patients with ovarian cancer. Patients were assigned to treatment with veliparib at either 100 mg (dose level 1 [DL1]) or 150 mg (DL2) b.i.d. on days 1–21 of a 21‐day cycle. […] After completion of cycle 1, subsequent cycles were not begun until the patient's ANC was ≥1500/mm^3 and the platelet count ≥100 000/mm^3. Patients with ANC 1000–1499/mm^3 or platelet count 75 000–99 000/mm^3 (or both) could proceed to the next cycle of therapy with a predefined dose modification (Table S1). On day 8 or 15 of each cycle, another dose modification guideline was applied (Table S2). The patient's participation in the study was discontinued upon the third occurrence of hematologic toxicity that required dose modification per protocol. Treatment could be postponed for up to 21 days because of toxicity; longer toxicity‐related delay led to study discontinuation. Reduction of carboplatin and paclitaxel doses was permitted based on the toxicity observed (Table S3), which could necessitate discontinuation of either agent. At the investigator's discretion, patients who discontinued veliparib were […] to discontinue the study but could continue to receive carboplatin and paclitaxel as standard of care. The trial was conducted in accordance with good clinical practice, the International Conference on Harmonization guidelines, and the 1964 Declaration of Helsinki and its later amendments; written informed consent was obtained from all patients before study enrollment. […]
# Dose‐limiting toxicities were determined based on events that occurred during the DLT evaluation period from day 1 of cycle 1 through pre‐dosing on day 1 of cycle 2. […] The RP2D was determined on the basis of assessment of the observed toxicities, the MTD, the overall safety profile of the regimen, and the PK of veliparib. […]
row,SMILES,median dose intensity
1,C[C@]1(c2nc3c(C(N)=O)cccc3[nH]2)CCCN1 [Veliparib],100%
2,N.N.O=C([O-])C1(C(=O)[O-])CCC1.[Pt+2] [carboplatin],≥ 75%
3,CC(=O)O[C@H]1C(=O)[C@@]2(C)[C@H]([C@H](OC(=O)c3ccccc3)[C@]3(O)C[C@H](OC(=O)[C@H](O)[C@@H](NC(=O)c4ccccc4)c4ccccc4)C(C)=C1C3(C)C)[C@]1(OC(C)=O)CO[C@@H]1C[C@@H]2O [paclitaxel],≥ 75%
